Experimental data published in publication PMC4180847.
No constants are given. Whether binding was seen depends on the method and setting. In cells and extracts the contact can be indirect. Some entries that bind do so weakly or less than the wild type.

Protein sequences, listed by entry. Tags and fused reporters are not part of them. Lines headed by an entry give the natural chain unless they say otherwise; changes in a name come on top.
UniProt Q00987: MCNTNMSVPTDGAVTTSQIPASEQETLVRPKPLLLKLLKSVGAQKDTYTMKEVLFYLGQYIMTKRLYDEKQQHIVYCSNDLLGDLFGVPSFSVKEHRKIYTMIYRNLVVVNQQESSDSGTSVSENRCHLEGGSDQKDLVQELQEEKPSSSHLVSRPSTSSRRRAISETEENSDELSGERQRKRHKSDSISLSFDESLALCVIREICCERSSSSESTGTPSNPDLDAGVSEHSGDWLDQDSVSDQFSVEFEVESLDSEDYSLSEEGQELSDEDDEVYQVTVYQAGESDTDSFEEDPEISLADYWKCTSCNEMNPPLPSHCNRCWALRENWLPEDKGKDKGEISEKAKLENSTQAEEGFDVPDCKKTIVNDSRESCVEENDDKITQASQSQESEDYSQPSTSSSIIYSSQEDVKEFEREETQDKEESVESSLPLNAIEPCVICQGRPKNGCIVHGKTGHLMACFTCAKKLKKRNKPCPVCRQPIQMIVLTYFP

What was measured:
[1] = biological target: T1, nucleostemin (human (endogenous in 10AT-Her2, SKBR3, MCF-7, MDA-MB-231)) (UniProt Q9BVP2); experiment: co-IP; total extracts of 10AT-Her2 cells treated with or without 200 μM I3C for 48 hours (also cells transfected with EV, WT or Δ205 elastase vectors), immunoprecipitated with nucleostemin antibodies; Western blot for serine-166 phosphorylated MDM2 or total MDM2
T1 sequence: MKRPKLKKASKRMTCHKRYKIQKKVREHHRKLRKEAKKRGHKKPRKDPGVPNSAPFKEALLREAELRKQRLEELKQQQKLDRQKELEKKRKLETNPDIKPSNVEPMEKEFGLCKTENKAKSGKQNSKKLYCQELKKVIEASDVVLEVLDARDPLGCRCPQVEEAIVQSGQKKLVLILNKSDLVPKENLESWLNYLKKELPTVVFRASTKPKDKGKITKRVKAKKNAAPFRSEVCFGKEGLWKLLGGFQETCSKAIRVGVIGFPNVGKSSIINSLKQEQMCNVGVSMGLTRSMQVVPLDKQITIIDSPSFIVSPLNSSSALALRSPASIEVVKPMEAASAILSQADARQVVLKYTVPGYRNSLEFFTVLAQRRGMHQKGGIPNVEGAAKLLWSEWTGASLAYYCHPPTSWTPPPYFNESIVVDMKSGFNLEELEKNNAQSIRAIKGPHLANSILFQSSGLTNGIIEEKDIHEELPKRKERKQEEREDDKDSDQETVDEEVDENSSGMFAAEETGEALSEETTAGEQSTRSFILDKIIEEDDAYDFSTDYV

[2] = biological target: T1, nucleostemin (human (endogenous in 10AT-Her2, SKBR3, MCF-7, MDA-MB-231)); experiment: co-IP; total extracts of SKBR3 cells treated with or without 200 μM I3C for 48 hours, immunoprecipitated with nucleostemin antibodies; Western blot for serine-166 phosphorylated MDM2 or total MDM2

binding [1] | binding [2] | Substance
binds | binds | MDM2 (murine double mutant 2) (from UniProt Q00987 1-491)
binds |  | serine-166 (Ser166) phosphorylated MDM2 (from UniProt Q00987 1-491)
